The record followed here is patent US20260210966A1, “METHOD FOR PREDICTING FORMULATION EXHIBITING TARGET SENSORY QUALITY, AND METHOD FOR RECONFIGURING TARGET SENSORY QUALITY” (Ajinomoto Co., Inc., priority 2023, published 2026).

This data set is described as follows: Sensory evaluation of aroma reconstruction targeting a single aroma component <3-2> (196 test substances). Further details: species or system human. Particulars: reference Test 1 (−)-carvone, Test 2 trans-anethole, Test 3 syringol, Test 4 sotolon; for Similarity (sensory similarity to the target aroma): median of all replicates, blind, n=4x3 times, 5-point scale, 0 not similar at all to 4 extremely similar; for Corresponding evaluation labels: scale labels matching the median score. The text has this:
The four types of substances shown in Table 6 were selected and used as target aromas. Olfactory receptor activity profiles of the targets in an olfactory receptor activity database were set as target profiles.
For each target, 196 types of substances obtained by excluding the target from the olfactory receptor activity database were used as a test substance group, and olfactory receptor activity profiles of these test substances were set as a test substance group profile.
Using the target profile as an objective variable (352 points×1 variable), and the test substance group profile as explanatory variables (352 points×196 variables), nonnegative constraint linear sparse modeling was performed to obtain a composite profile that approximates the target profile, and coefficients of the variables (the combination ratios of the receptor activity profiles of two or more target substances that provide the composite profile). Specifically, a LASSO (least absolute shrinkage and selection operator) regression model was used. The intercept of the model was set to 0. Using a parameter λ that defines the strength of regularization, optimization was performed such that the number of variables having a coefficient greater than 0 (the number of two or more target substances that provide the composite profile) was not more than 4. A mixing ratio of the target substances was determined according to the ratio of the coefficients of the model.
The target substances were mixed according to the calculated mixing ratio, to prepare a reconstructed product. For sensory evaluation, each of the target and the reconstructed product was diluted to a concentration at which the aroma could be smelled without difficulty.
The sensory evaluation was carried out in a blind manner (n=4×3 times). A target aroma was presented to each panelist as a reference sample. Subsequently, as an evaluation sample, the target aroma or the aroma of the reconstructed product was presented in a blind manner. Each panelist evaluated how similar the quality of aroma of each evaluation sample was to the quality of aroma of the reference sample, using a 5-point scale (0 point: not similar at all, 1 point: slightly similar, 2 points: moderately similar, 3 points: very similar, 4 points: extremely similar). Each test was carried out by each subject in three replicates on different days. For each evaluation sample, the median of the scores in all replicates by all panelists was calculated to determine the “sensory similarity” to the target aroma.

`COc1cccc(OC)c1O` [Test 3 Target, syringol]: the “Similarity (sensory similarity to the target aroma)” value is 4.0 and the Corresponding evaluation labels result is ““extremely similar””.
The corresponding values for `CC1=C(O)C(=O)OC1C` (stereo not shown) [Test 4 Target, sotolon] are 4.0 and ““extremely similar””.
